No constants are given. Whether binding was seen depends on the method and setting. Binding seen in cells or lysates may run through a third protein. Some binding calls cover weakened binding; strength is not graded here. Tags and fused reporters may be left off the sequences shown.

Sequences of proteins named here, by UniProt entry; tags and fusion partners are left off. Residues count along the entry.
UniProt P02647, residues 25-267: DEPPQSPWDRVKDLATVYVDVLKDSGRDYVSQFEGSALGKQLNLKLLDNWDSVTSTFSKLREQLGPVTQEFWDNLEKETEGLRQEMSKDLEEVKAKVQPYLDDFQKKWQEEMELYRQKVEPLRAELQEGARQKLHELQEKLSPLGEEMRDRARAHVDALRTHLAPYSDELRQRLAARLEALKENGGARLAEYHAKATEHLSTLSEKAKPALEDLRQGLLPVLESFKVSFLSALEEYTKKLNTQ

The target in the assay is human apolipoprotein A-I (Sigma), cross-linked to CNBr-activated Sepharose resin (human) (UniProt P02647). Description: pull-down of COS7 supernatant on apo A-I Sepharose, EDTA elution, anti-Myc Western blot. (In general: In western blotting, separated proteins are transferred to a membrane and probed.)

B1: CUB9-CUB14 fragment peptide of human cubilin (positions 1391-2091), Myc and His tagged, COS7 culture supernatant (receptor, not shown: small tags and cut ends)
chain: CGGELSGATGSFSSPGFPNRYPPNKECIWYIRTDPGSSIQLTIHDFDVEYHSRCNFDVLEIYGGPDFHSPRIAQLCTQRSPENPMQVSSTGNELAIRFKTDLSINGRGFNASWQAVTGGCGGIFQAPSGEIHSPNYPSPYRSNTDCSWVIRVDRNHRVLLNFTDFDLESQDSCIMAYDGLSSTMSRLARTCGREQLANPIVSSGNSLFLRFQSGPSRQNRGFRAQFRQACGGHILTSSFDTVSSPRFPANYPNNQNCSWIIQAQPPLNHITLSFTHFELERSTTCARDFVEILDGGHEDAPLRGRYCGTDMPHPITSFSSALTLRFVSDSSISAGGFHTTVTASVSACGGTFYMAEGIFNSPGYPDIYPPNVECVWNIVSSPGNRLQLSFISFQLEDSQDCSRDFVEIREGNATGHLVGRYCGNSFPLNYSSIVGHTLWVRFISDGSGSGTGFQATFMKIFGNDNIVGTHGKVASPFWPENYPHNSNYQWTVNVNASHVVHGRILEMDIEEIQNCYYDKLRIYDGPSIHARLIGAYCGTQTESFSSTGNSLTFHFYSDSSISGKGFLLEWFAVDAPDGVLPTIAPGACGGFLRTGDAPVFLFSPGWPDSYSNRVDCTWLIQAPDSTVELNILSLDIESHRTCAYDSLVIRDGDNNLAQQLAVLCGREIPGPIRSTGEYMFIRFTSDSSVTRAGFNASFHKS
Consider B1, for which the binding result was “binds”.

B2: partial fragment III of human cubilin (positions 1165-2091; fragment peptide CUB7-CUB14), Myc and His tagged, COS7 culture supernatant (receptor, not shown: small tags and cut ends)
chain: CGGNLTTSSGTFISPNYPMPYYHSSECYWWLKSSHGSAFELEFKDFHLEHHPNCTLDYLAVYDGPSSNSHLLTQLCGDEKPPLIRSSGDSMFIKLRTDEGQQGRGFKAEYRQTCENVVIVNQTYGILESIGYPNPYSENQHCNWTIRATTGNTVNYTFLAFDLEHHINCSTDYLELYDGPRQMGRYCGVDLPPPGSTTSSKLQVLLLTDGVGRREKGFQMQWFVYGCGGELSGATGSFSSPGFPNRYPPNKECIWYIRTDPGSSIQLTIHDFDVEYHSRCNFDVLEIYGGPDFHSPRIAQLCTQRSPENPMQVSSTGNELAIRFKTDLSINGRGFNASWQAVTGGCGGIFQAPSGEIHSPNYPSPYRSNTDCSWVIRVDRNHRVLLNFTDFDLESQDSCIMAYDGLSSTMSRLARTCGREQLANPIVSSGNSLFLRFQSGPSRQNRGFRAQFRQACGGHILTSSFDTVSSPRFPANYPNNQNCSWIIQAQPPLNHITLSFTHFELERSTTCARDFVEILDGGHEDAPLRGRYCGTDMPHPITSFSSALTLRFVSDSSISAGGFHTTVTASVSACGGTFYMAEGIFNSPGYPDIYPPNVECVWNIVSSPGNRLQLSFISFQLEDSQDCSRDFVEIREGNATGHLVGRYCGNSFPLNYSSIVGHTLWVRFISDGSGSGTGFQATFMKIFGNDNIVGTHGKVASPFWPENYPHNSNYQWTVNVNASHVVHGRILEMDIEEIQNCYYDKLRIYDGPSIHARLIGAYCGTQTESFSSTGNSLTFHFYSDSSISGKGFLLEWFAVDAPDGVLPTIAPGACGGFLRTGDAPVFLFSPGWPDSYSNRVDCTWLIQAPDSTVELNILSLDIESHRTCAYDSLVIRDGDNNLAQQLAVLCGREIPGPIRSTGEYMFIRFTSDSSVTRAGFNASFHKS
As to B2, the binding result is “binds”.

The values are drawn from patent US20030176339A1.
